Laboratory results taken from paper PMC5681435, “Differential Regulation of G1 CDK Complexes by the Hsp90-Cdc37 Chaperone System” (Cell Reports, 2017).
Results are given in words; binding and its absence hold for the method and conditions named. Some results given as binding are weak or reduced against the parent protein; the word gives no strength. For part of these data: Where a sequence is shown, tags or fusion partners need not be part of it. Values belong to the substance of their own block, whether it stands above or below them.

By UniProt entry, the sequences of proteins in these tests, tags left out. Residues count along the entry.
UniProt P11802: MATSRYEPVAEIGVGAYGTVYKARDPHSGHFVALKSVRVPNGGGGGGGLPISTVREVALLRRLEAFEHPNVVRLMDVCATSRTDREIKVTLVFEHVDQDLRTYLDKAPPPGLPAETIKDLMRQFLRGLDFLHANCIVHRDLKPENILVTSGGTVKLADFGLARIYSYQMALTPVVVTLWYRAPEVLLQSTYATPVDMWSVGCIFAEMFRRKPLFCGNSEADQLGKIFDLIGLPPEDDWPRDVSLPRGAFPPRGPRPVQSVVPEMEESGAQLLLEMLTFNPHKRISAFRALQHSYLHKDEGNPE
UniProt Q00534: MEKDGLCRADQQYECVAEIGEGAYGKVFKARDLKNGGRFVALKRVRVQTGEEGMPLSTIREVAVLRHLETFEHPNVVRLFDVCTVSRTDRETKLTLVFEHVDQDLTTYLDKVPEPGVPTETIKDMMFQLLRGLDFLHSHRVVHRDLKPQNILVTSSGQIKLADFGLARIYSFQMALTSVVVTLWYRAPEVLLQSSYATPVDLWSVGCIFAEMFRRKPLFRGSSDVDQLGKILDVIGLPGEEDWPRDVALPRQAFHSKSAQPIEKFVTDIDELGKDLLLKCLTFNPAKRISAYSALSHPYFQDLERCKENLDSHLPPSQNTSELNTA
UniProt P30281: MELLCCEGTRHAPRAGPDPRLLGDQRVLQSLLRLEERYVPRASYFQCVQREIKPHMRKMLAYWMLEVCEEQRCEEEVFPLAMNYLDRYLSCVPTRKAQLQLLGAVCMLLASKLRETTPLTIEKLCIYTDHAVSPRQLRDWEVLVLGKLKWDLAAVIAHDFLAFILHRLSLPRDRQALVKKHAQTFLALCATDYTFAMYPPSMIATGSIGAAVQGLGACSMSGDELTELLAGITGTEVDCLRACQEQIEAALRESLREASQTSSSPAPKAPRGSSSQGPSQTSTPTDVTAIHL
UniProt P24385: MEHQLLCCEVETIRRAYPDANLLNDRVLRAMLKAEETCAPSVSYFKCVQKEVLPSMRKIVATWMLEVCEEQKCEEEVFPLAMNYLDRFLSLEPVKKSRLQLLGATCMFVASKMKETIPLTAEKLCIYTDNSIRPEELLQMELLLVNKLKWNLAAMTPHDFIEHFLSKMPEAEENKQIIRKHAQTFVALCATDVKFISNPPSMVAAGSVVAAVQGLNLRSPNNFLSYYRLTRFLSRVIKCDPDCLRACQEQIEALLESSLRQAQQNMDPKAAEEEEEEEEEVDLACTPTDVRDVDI
UniProt P38936, residues 1-87: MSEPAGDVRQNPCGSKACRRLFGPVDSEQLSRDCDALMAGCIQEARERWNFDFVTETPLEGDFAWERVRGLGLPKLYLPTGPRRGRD
UniProt P46527, residues 1-106: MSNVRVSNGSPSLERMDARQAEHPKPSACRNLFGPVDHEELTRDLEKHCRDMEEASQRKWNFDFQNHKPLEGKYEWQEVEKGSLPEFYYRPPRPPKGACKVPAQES

How the values were obtained:
[1] = target: T1, FLAG-tagged Cdc37 (human) (UniProt Q16543); assay: pull-down; both purified
T1 sequence: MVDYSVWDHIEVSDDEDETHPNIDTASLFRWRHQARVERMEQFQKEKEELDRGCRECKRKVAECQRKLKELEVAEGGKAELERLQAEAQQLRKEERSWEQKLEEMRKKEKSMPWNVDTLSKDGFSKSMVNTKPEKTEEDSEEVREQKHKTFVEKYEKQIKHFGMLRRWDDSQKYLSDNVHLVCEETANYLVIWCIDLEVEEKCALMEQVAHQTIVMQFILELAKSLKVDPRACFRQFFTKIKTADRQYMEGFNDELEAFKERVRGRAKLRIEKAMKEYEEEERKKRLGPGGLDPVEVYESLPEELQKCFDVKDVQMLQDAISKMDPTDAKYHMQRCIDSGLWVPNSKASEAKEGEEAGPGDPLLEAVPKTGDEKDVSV

[2] = target: CDK4 (of the CDK4-cyclin D1/D3 complexes used in the FLAG-Cdc37 pull-down) (human) (UniProt P11802); assay: pull-down; both purified
[3] = target: CDK6 (of the CDK6-cyclin D1/D3 complexes used in the FLAG-Cdc37 pull-down) (human) (UniProt Q00534); assay: pull-down; both purified
[4] = target: GSTCDK4 (human) (UniProt P11802); assay: AlphaScreen or HTRF; both purified
[5] = target: GSTCDK6 (human) (UniProt Q00534); assay: AlphaScreen or HTRF; both purified
[6] = target: GSTCDK4 (human) (UniProt P11802); assay: co-purification (GST affinity, then size-exclusion chromatography)
[7] = target: GSTCDK6 (human) (UniProt Q00534); assay: as above
[8] = target: GSTCDK4-cyclin D1 complex (UniProt P11802); assay: SEC; both purified
[9] = target: GSTCDK4-cyclin D3 complex (UniProt P11802); assay: SEC; both purified
[10] = target: GSTCDK6-cyclin D1 complex (UniProt Q00534); assay: SEC; both purified
[11] = target: GSTCDK6-cyclin D3 complex (UniProt Q00534); assay: SEC; both purified
[12] = target: T2, Avi-tagged Kcyclin (Kaposi's sarcoma-associated herpesvirus) (UniProt Q77Q36); assay: pull-down; both purified
T2 sequence (chain, biotin (on the Avi tag)): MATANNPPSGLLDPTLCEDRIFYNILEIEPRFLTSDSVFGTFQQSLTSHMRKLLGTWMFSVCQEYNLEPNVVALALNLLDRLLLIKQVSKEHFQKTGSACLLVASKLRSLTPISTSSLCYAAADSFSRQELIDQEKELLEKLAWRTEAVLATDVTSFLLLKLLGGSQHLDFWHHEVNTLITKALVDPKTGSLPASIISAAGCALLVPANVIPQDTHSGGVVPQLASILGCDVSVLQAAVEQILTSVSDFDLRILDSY

Substance: CDK6 (of the CDK6-cyclin D1/D3 complexes used in the FLAG-Cdc37 pull-down) (from UniProt Q00534 1-326) (enzyme)
binding [1]: binds

Substance: cyclin D3 (from UniProt P30281 1-292)
binding [2]: binds
binding [3]: binds
binding [1]: no binding
binding [4]: binds
binding [5]: binds
binding [6]: binds
binding [7]: binds

Substance: cyclin D1 (from UniProt P24385 1-295)
binding [2]: binds
binding [1]: no binding
binding [4]: binds
binding [6]: binds

Substance: GSTCDK6 (from UniProt Q00534 1-326) (enzyme)
binding [12]: binds

Substance: p21CIP1 residues 1-87 (from UniProt P38936 1-87) (domain or fragment)
binding [9]: binds

Now from value to substance:

binding [8]: binds
binding [9]: binds
binding [10]: binds
binding [11]: binds
Substance: p27KIP1 residues 1-106 (from UniProt P46527 1-106) (domain or fragment)

binding [3]: binds
binding [5]: binds
binding [7]: binds
Substance: cyclin D1 (from UniProt P24385 1-295) (other; other documents disagree on this pair)
